{"source": "patent US8569055B2", "about": "“Identification and characterization of cancer stem cells and methods of use” (City of Hope, priority 2006, dated 2013)", "assay_type_in_all_cases": "cell-based, human", "key": {"[1]": {"test_system": "unsorted NCI-H211, NCI-H69AR, NCI-H1417 cells", "experiment": "Cytotoxicity assay, cisplatin and/or etoposide, unsorted SCLC cell lines", "conditions": "drugs separately or in combination, 3-100 μg/ml, 72 hours"}, "[2]": {"test_system": "non-sorted SCLC cell lines", "experiment": "Enrichment of uPAR-positive cells in surviving non-sorted SCLC cells (FACS, uPAR-FITC)", "conditions": "after drug treatment; control cultures without drugs 1-5%"}, "[3]": {"test_system": "uPAR-positive sorted NCI-H211, NCI-H69AR, NCI-H1417 cells", "experiment": "Cytotoxicity assay, cisplatin and etoposide, uPAR-positive sorted SCLC cells", "conditions": "72 hours"}, "[4]": {"test_system": "uPAR-negative sorted NCI-H211, NCI-H69AR, NCI-H1417 cells", "experiment": "Cytotoxicity assay, cisplatin and etoposide, uPAR-negative sorted SCLC cells", "conditions": "72 hours"}}, "note": "Some entries share one result that the patent states for a list of compounds.", "data": [{"compound": "COc1cc([C@@H]2c3cc4c(cc3[C@@H](O[C@@H]3O[C@@H]5CO[C@@H](C)O[C@H]5[C@H](O)[C@H]3O)[C@H]3COC(=O)[C@H]23)OCO4)cc(OC)c1O", "note": "[etoposide]", "values": [{"measurement": "cells killed", "setting": "[1]", "value": "60-80%"}, {"measurement": "uPAR-positive cells in the surviving cells", "setting": "[2]", "value": "40-70%"}, {"measurement": "cells killed", "setting": "[3]", "value": "30-50%"}, {"measurement": "cells killed", "setting": "[4]", "value": "60-80%"}]}]}
